The values below come from PMC9544338.

Protein sequences, listed by entry. Tags and fused reporters are not part of them. Lines headed by an entry give the natural chain unless they say otherwise; changes in a name come on top.
UniProt P09471: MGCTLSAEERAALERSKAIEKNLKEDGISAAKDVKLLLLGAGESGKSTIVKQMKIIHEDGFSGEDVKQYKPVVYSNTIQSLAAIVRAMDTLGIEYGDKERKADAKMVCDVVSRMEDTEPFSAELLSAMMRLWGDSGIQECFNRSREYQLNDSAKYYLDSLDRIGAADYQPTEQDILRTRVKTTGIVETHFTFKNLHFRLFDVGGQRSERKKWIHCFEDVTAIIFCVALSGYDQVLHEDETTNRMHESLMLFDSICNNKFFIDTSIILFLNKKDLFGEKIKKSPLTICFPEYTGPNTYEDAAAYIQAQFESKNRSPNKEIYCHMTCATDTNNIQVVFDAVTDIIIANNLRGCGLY

These are yes or no findings as the source states them, for the method shown. Binding seen in cells or lysates may run through a third protein. Some results given as binding are weak or reduced against the parent protein; the word gives no strength. Tags and fused reporters may be left off the sequences shown.

In assay [1] the target is Gαo[G203R]-GST-HA (C-terminally tagged) (human) (UniProt P09471). As to the kind of experiment: pull-down; N2a cells cotransfected with AGS3-GFP and Gαo-GST-HA variants; pull-down of Gαo from the lysate with glutathione beads; Western blot against HA and GFP; also after DMSO or 1 μM ZPT for 3 hours (ZPT increased the binding to G203R and decreased it to E246K). Background: Immunoblotting shows a protein as a band on a membrane.

Assay [2] concerns the target Gαo[R209C]-GST-HA (C-terminally tagged) (human) (UniProt P09471). Described as above.
Assay [3] concerns the target Gαo-GST-HA (C-terminally tagged) wild type (human) (UniProt P09471). Described as above.
Assay [4] has as its target Gαo[E246K]-GST-HA (C-terminally tagged) (human) (UniProt P09471). Described as above.
In assay [5] the target is Gαo wild type (construct of fig. S2, tag not shown) (human) (UniProt P09471). As to the kind of experiment: co-IP + pull-down; N2a cells cotransfected with Gαo variants and the Golgi partners (fig. S2, B to G); immunoprecipitation with anti-GFP nanobody or glutathione pull-down, which one for which partner was not shown.
The target in assay [6] is Gαo[G203R] (construct of fig. S2, tag not shown) (human) (UniProt P09471). The assay is described as above.
The target in assay [7] is Gαo[E246K] (construct of fig. S2, tag not shown) (human) (UniProt P09471). The description is as above.
Assay [8] has as its target Gαo[R209C] (construct of fig. S2, tag not shown) (human) (UniProt P09471). Described as above.
The target of assay [9] is Gαo[G203R]-GFP (internally tagged) (human) (UniProt P09471). In words: co-IP; N2a cells cotransfected with His6-RGS19 and Gαo-GFP variants (internally or C-terminally tagged); cells untreated or treated with DMSO (100 μM ZnCl2 was ineffective); IP of Gαo with a nanobody against GFP; Western blot against GFP and His6.
The target in assay [10] is Gαo[R209C]-GFP (internally tagged) (human) (UniProt P09471). Described as above.
For assay [11], the target named is Gαo[E246K]-GFP (C-terminally tagged) (human) (UniProt P09471). Described as above.
Assay [12] deals with Gαo[G203R]-GFP (C-terminally tagged) (human) (UniProt P09471). Described as above.
Assay [13] addresses Gαo[E246K]-GFP (internally tagged) (human) (UniProt P09471). Described as above.
Assay [14] addresses Gαo-GFP (internally tagged) wild type (human) (UniProt P09471). The description is as above.
Assay [15] concerns the target Gαo[R209C]-GFP (C-terminally tagged) (human) (UniProt P09471). Described as above.
In assay [16] the target is Gαo[Q205L]-GFP (internally tagged) (human) (UniProt P09471). The description is as above.
Assay [17] concerns the target Gαo-GFP (C-terminally tagged) wild type (human) (UniProt P09471). The description is as above.

B1: AGS3-GFP (protein, UniProt Q86YR5 1-675)
chain: MAGPAPPVADELPGPAARRLYSRMEASCLELALEGERLCKAGDFKTGVAFFEAAVQVGTEDLKTLSAIYSQLGNAYFYLKEHGRALEYHKHDLLLARTIGDRMGEAKASGNLGNTLKVLGRFDEAAVCCQRHLSIAQEQGDKVGEARALYNIGNVYHAKGKQLSWNAANATQDPGHLPPDVRETLCKASEFYERNLSLVKELGDRAAQGRAYGNLGNTHYLLGNFTEATTFHKERLAIAKEFGDKAAERRAYSNLGNAHVFLGRFDVAAEYYKKTLQLSRQLRDQAVEAQACYSLGNTYTLLQDYERAAEYHLRHLLIAQELADRVGEGRACWSLGNAYVSMGRPAQALTFAKKHLQISQEIGDRHGELTARMNVAQLQLVLGRLTSPAASEKPDLAGYEAQGARPKRTQRLSAETWDLLRLPLEREQNGDSHHSGDWRGPSRDSLPLPVRSRKYQEGPDAERRPREGSHSPLDSADVRVHVPRTSIPRAPSSDEECFFDLLTKFQSSRMDDQRCPLDDGQAGAAEATAAPTLEDRIAQPSMTASPQTEEFFDLIASSQSRRLDDQRASVGSLPGLRITHSNAGHLRGHGEPQEPGDDFFNMLIKYQSSRIDDQRCPPPDVLPRGPTMPDEDFFSLIQRVQAKRMDEQRVDLAGGPEQGAGGPPEPQQQCQPGAS
As for B1, the binding result in assay [1], in assay [2], in assay [3] and in [4] was “binds” each time.

B2: GFP-Rab3a (protein, UniProt P20336 1-220)
chain: MASATDSRYGQKESSDQNFDYMFKILIIGNSSVGKTSFLFRYADDSFTPAFVSTVGIDFKVKTIYRNDKRIKLQIWDTAGQERYRTITTAYYRGAMGFILMYDITNEESFNAVQDWSTQIKTYSWDNAQVLLVGNKCDMEDERVVSSERGRQLADHLGFEFFEASAKDNINVKQTFERLVDVICEKMSESLDTADPAVTGAKQGPQLSDQQVPPHQDCAC
Turning to B2, the binding entry in assay [5], in assay [6], in assay [7] and in assay [8] was “binds” throughout.

B3: His6-RGS19 (protein, UniProt P49795 1-217)
chain: MPTPHEAEKQITGPEEADRPPSMSSHDTASPAAPSRNPCCLCWCCCCSCSWNQERRRAWQASRESKLQPLPSCEVCATPSPEEVQSWAQSFDKLMHSPAGRSVFRAFLRTEYSEENMLFWLACEELKAEANQHVVDEKARLIYEDYVSILSPKEVSLDSRVREGINKKMQEPSAHTFDDAQLQIYTLMHRDSYPRFLSSPTYRALLLQGPSQSSSEA
On to B3, for which the binding result in [9] is reported as “binds weakly”; in [10] it was “binds weakly”; in assay [11], “binds weakly”; in assay [12] it was “binds weakly”; in [13], “binds weakly”; in assay [14] it was “binds”. The figures for the binding entry in assay [15], in assay [16] and in assay [17] were “binds weakly”, “binds” and “binds”, respectively.
